# Measurements published in PMC7819943, “Rice protein-binding microarrays: a tool to detect cis-acting elements near promoter regions in rice”.
# The chains behind the UniProt entries cited, without tags or fusion partners.
# UniProt Q0JBA9, entry or part of it: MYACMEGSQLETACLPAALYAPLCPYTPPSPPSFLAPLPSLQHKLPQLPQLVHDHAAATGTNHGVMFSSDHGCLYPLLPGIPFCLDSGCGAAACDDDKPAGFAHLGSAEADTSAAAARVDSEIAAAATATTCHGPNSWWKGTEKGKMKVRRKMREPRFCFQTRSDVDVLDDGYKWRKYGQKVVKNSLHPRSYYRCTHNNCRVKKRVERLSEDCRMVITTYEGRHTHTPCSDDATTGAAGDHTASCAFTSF
# This is one part of the list.
# Target: OsWRKY34 (Oryza sativa, UniProt Q0JBA9 1-250)
# Assay: protein-binding microarray (RPBM); PBS, 2% BSA, 51.3 ng/ul salmon testes DNA, 50 uM zinc acetate, 200 nM TF, 25 C, 1 h; high values mean tight binding
# Details: protein: recombinant; tags: N-terminal polyhistidine and DsRed monomer fusion (pET32a); label: CyDye5-dUTP incorporated in the synthesized complementary strand; 3' TTTTT single-stranded linker to array surface; dsDNA, one strand shown
# Summary of the method: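 Per-feature fluorescence intensity (arbitrary units), read on an Axon 4000B scanner, is the binding signal. Transcription factors carrying an N-terminal polyhistidine tag and DsRed fusion were expressed in E. coli BL21-CodonPlus and purified on Ni–NTA. A custom Agilent array, made double-stranded by primer extension with Cy5-dUTP and blocked with 2% BSA, was incubated with 200 nM protein in PBS, 2% BSA, salmon testes DNA and 50 µM zinc acetate at 25 °C for 1 h and then washed.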
row,Sequence,binding signal
1,GTTAATCGGCCACTCTGTTTTTTTGGTTACACCCACTACCCGGAGTCACCTAGTGCAG,9900 fluorescence intensity (a.u.)
2,CCAGGTCTGTTTTACCGGGTCTCGAAGTTTCCTTGCTTGGCGGAGTCACCTAGTGCAG,8350 fluorescence intensity (a.u.)
3,CGTCCGATCGGGCTCGCGCGTTGACTATAACCGGTCCACGCGGAGTCACCTAGTGCAG,13100 fluorescence intensity (a.u.)
4,GCCACAGAGATGATGGTTTGTATTGATCATACTAGTTACTCGGAGTCACCTAGTGCAG,8860 fluorescence intensity (a.u.)
5,TGATTAATCCATCTATCGCGTTGAGCTATACTCGTCTTCACGGAGTCACCTAGTGCAG,9270 fluorescence intensity (a.u.)
6,TAGGATACTGACTCATGTTGCTGCTGCTCTTTTCGTCTATCGGAGTCACCTAGTGCAG,11700 fluorescence intensity (a.u.)
7,AAACGAATAGTCAAACGTTGATCGAAAAGTCAACGGCGTCCGGAGTCACCTAGTGCAG,19300 fluorescence intensity (a.u.)
8,ACCACGGCAAGCCCCTCGCCGAGTCTCTCATCATCGTCGACGGAGTCACCTAGTGCAG,8830 fluorescence intensity (a.u.)
9,ACCAAAAAGATGCCATGTTTTTTCAGCCCAAACTACAATGCGGAGTCACCTAGTGCAG,8070 fluorescence intensity (a.u.)
10,GACCAGCCTCTATATTTCCATTCTCATGATCCATGGGCAACGGAGTCACCTAGTGCAG,9210 fluorescence intensity (a.u.)
11,AAATATCACCAGCTACCTGATTCATTATTCATCCATCACTCGGAGTCACCTAGTGCAG,10900 fluorescence intensity (a.u.)
12,TGGTGGTGGTGGTGGTAGGGTTAGGGGTAGGAGGGGTCTCCGGAGTCACCTAGTGCAG,12900 fluorescence intensity (a.u.)
13,GGATAGAGTGGTGCTTTGGTGTGCTTTTGTTTTAATTGTTCGGAGTCACCTAGTGCAG,11700 fluorescence intensity (a.u.)
14,AACACACGCCACACTCCTCTCGCCCGCATCGCACTCGCACCGGAGTCACCTAGTGCAG,10700 fluorescence intensity (a.u.)
15,TCCCCGTCACGCGGTCAACCCGCCCATGCATTCGCGCGCCCGGAGTCACCTAGTGCAG,9200 fluorescence intensity (a.u.)
16,ATCCAACCGACGCGAAACCGACGCGTTGCTTCCCTGCTAACGGAGTCACCTAGTGCAG,8320 fluorescence intensity (a.u.)
17,CCTCCGCCACCTTTGCATTCACCATCCTTCCAGTCAAATCCGGAGTCACCTAGTGCAG,11500 fluorescence intensity (a.u.)
18,CTCCTCACACATTCCCACGCACACATTTCCCCATGCACATCGGAGTCACCTAGTGCAG,9490 fluorescence intensity (a.u.)
19,TCGTCATATTTACTTTCGTCATATTTAATCTCTATTTAACCGGAGTCACCTAGTGCAG,8390 fluorescence intensity (a.u.)
20,AGGTGTGAGAGATAAAAAGGTAATAGTTGGTCACGTCATACGGAGTCACCTAGTGCAG,9080 fluorescence intensity (a.u.)
21,GACGCCGTTAACTTTTTCTCACATGTTTAACCATTCGTCTCGGAGTCACCTAGTGCAG,12700 fluorescence intensity (a.u.)

# Rewritten tab-delimited: entries from further up.
row	Sequence	binding signal
5	TGATTAATCCATCTATCGCGTTGAGCTATACTCGTCTTCACGGAGTCACCTAGTGCAG	9270 fluorescence intensity (a.u.)
7	AAACGAATAGTCAAACGTTGATCGAAAAGTCAACGGCGTCCGGAGTCACCTAGTGCAG	19300 fluorescence intensity (a.u.)
8	ACCACGGCAAGCCCCTCGCCGAGTCTCTCATCATCGTCGACGGAGTCACCTAGTGCAG	8830 fluorescence intensity (a.u.)
12	TGGTGGTGGTGGTGGTAGGGTTAGGGGTAGGAGGGGTCTCCGGAGTCACCTAGTGCAG	12900 fluorescence intensity (a.u.)

# Remaining list, next part:

row,Sequence,binding signal
1,ATAACTTTTATTTTGGTCATTTATTCATCCGACAAAATAGCGGAGTCACCTAGTGCAG,9220 fluorescence intensity (a.u.)
2,ACCCACCAAACACATCCACGTCCCTTCACCGTTGGCCTTCCGGAGTCACCTAGTGCAG,14100 fluorescence intensity (a.u.)
3,ACCGCCATAGACTACCCAAGCCACTCAAATAGTACGATTTCGGAGTCACCTAGTGCAG,8170 fluorescence intensity (a.u.)
4,CCACGCCAACACCATCTCTCTTTCCTCTATTCTCTCCCTTCGGAGTCACCTAGTGCAG,9120 fluorescence intensity (a.u.)
5,CCGTCTACCATCTAGATGTCGACAAAACCATGTGCTCCTCCGGAGTCACCTAGTGCAG,8150 fluorescence intensity (a.u.)
6,GTGTAGTAGTGTAGTAGGATCGCATCTAACCGTTGATTTTCGGAGTCACCTAGTGCAG,8580 fluorescence intensity (a.u.)
7,TCTCTCTCTCTCTCTCTTCTCTTCTCTTTGTTTTCTTGTTCGGAGTCACCTAGTGCAG,9940 fluorescence intensity (a.u.)
8,ACCCGCTTGCTAGTTTATTTTTACATGGTAATACAAAATTCGGAGTCACCTAGTGCAG,9030 fluorescence intensity (a.u.)
9,ACCGCCGCGGCGGCTTCGCTTCGCTTCCCAATCCTTCACACGGAGTCACCTAGTGCAG,9120 fluorescence intensity (a.u.)
10,CAAGCCGGGTGGGAAGGGGCGGGACTCCATACTGCTGCCGCGGAGTCACCTAGTGCAG,13000 fluorescence intensity (a.u.)
11,CCCAGATTCGCCCCGCACCGCACCGCCCTTGGCTCGCCCCCGGAGTCACCTAGTGCAG,8340 fluorescence intensity (a.u.)
12,GATCAACCACTCTGCCACTAGACTCCATTTGCACTTCACTCGGAGTCACCTAGTGCAG,8940 fluorescence intensity (a.u.)
13,GCGCCAACTCACCACCACATGCATATACACACGAGAAATCCGGAGTCACCTAGTGCAG,11400 fluorescence intensity (a.u.)
14,GCCCATAACCATCGTCGATCTCGTCCGCACATCTGCGGCCCGGAGTCACCTAGTGCAG,13300 fluorescence intensity (a.u.)
15,TTTTGGTTGGACTTTCCACCCTACTACTATCTCATTATGCCGGAGTCACCTAGTGCAG,9120 fluorescence intensity (a.u.)
16,TCGATCGACCTCTGCTGCTGCCTCGCTGTCCTCTGCTACGCGGAGTCACCTAGTGCAG,10300 fluorescence intensity (a.u.)
17,CATTTGATTTTGATTTGATCGATACCATTCCGCTTTCACCCGGAGTCACCTAGTGCAG,10900 fluorescence intensity (a.u.)
18,ACGCCACCGTACGCCGTTGTTTGTTGCGCAGTGCCTGCCCCGGAGTCACCTAGTGCAG,9840 fluorescence intensity (a.u.)
19,ATCAAAACGCTGGTCATTCTGTCTACTCCATCCGACCCCACGGAGTCACCTAGTGCAG,8500 fluorescence intensity (a.u.)
20,AAGGAGAGGGGCCGCGTGGGGATGGGAAGTGCAATATTTGCGGAGTCACCTAGTGCAG,11300 fluorescence intensity (a.u.)
21,CCGTCGCACTCAACGCTCTGTTTCACACACGCACGCACCCCGGAGTCACCTAGTGCAG,8400 fluorescence intensity (a.u.)

row,Sequence,binding signal
1,TTAATACTTACTACTTGTCTGCTTTGAGTTTTTTGTTTAACGGAGTCACCTAGTGCAG,9060 fluorescence intensity (a.u.)
2,GATTTTGAGTTTTTGTTTGCAACGTTTGACCACTCGTCTTCGGAGTCACCTAGTGCAG,9270 fluorescence intensity (a.u.)
3,GTCTCGCCGCGCACACGTCGCTCTCACTGGCTTAGCTGAGCGGAGTCACCTAGTGCAG,8510 fluorescence intensity (a.u.)
4,TTGGCAATAATCACACCAATCATATCACAGTTGTCGTTGACGGAGTCACCTAGTGCAG,8730 fluorescence intensity (a.u.)
5,CGCACATGGTCGTGGCGGCGGCGGAGGTGGTGGTGGTGCGCGGAGTCACCTAGTGCAG,8650 fluorescence intensity (a.u.)
6,CGAAGGCTCATAAGGTTCCCTATTTTTTTTTTTTATCTCTCGGAGTCACCTAGTGCAG,8760 fluorescence intensity (a.u.)
7,AACACAGGCACTTTTTTCTCGTACCGACAAATTTGATTTCCGGAGTCACCTAGTGCAG,8540 fluorescence intensity (a.u.)
8,GTATTGTGGTTAGGGTTTTATCTCGACCTGCGTCTTTTTACGGAGTCACCTAGTGCAG,13100 fluorescence intensity (a.u.)
9,CCATCTTCCATCGTGCTCCCATCCAGGCGTTCGCGTCGTCCGGAGTCACCTAGTGCAG,10500 fluorescence intensity (a.u.)
10,ATCTCCTTTTTTTTTATCCTCCCAGCTATTAAATAGCCCTCGGAGTCACCTAGTGCAG,8520 fluorescence intensity (a.u.)
11,CACATGAGCTCCATAAGATCTTCCCACTTGATCTCCACATCGGAGTCACCTAGTGCAG,10100 fluorescence intensity (a.u.)
12,TTTTGTCATGTTGTAGGTACTCACCGATATGTGTTTCTTCCGGAGTCACCTAGTGCAG,8390 fluorescence intensity (a.u.)
13,CCCTCTATTTCAGTTTAACGAAACATATATATCCTCTATTCGGAGTCACCTAGTGCAG,8260 fluorescence intensity (a.u.)
14,GTGTCATTCGATCTCTGCTCGGTTCTACTACTTCTGAGTTCGGAGTCACCTAGTGCAG,9140 fluorescence intensity (a.u.)
15,GAGTGCCTTCGCCTATGCTGCGAGATCTTCTATTCGCTCACGGAGTCACCTAGTGCAG,8740 fluorescence intensity (a.u.)
16,GCTCTGGTGTAATTGAGATCTTGCAGCACACGACTATCGTCGGAGTCACCTAGTGCAG,8120 fluorescence intensity (a.u.)
17,CCCTCCTCCTCGCTTGCACACTTCGTACTCTCTCTAGTCCCGGAGTCACCTAGTGCAG,8520 fluorescence intensity (a.u.)
18,ATGTTGGACAAAAAGTCAACGGCGTCATACATCAAAATGTCGGAGTCACCTAGTGCAG,13900 fluorescence intensity (a.u.)
19,GCGCCGAGGCCCGCCGCCGCCCGCCATCCGCCGTTGGCCACGGAGTCACCTAGTGCAG,8440 fluorescence intensity (a.u.)
20,TTGGTTTTCCAATTTTGTTAACAACGCATAATCGTACTAACGGAGTCACCTAGTGCAG,8310 fluorescence intensity (a.u.)
21,TCTTTACTAATTAATTCTCCCTCCATTGGCTCATCACTGACGGAGTCACCTAGTGCAG,8140 fluorescence intensity (a.u.)

row,Sequence,binding signal
1,CTTTCTGTTTCATCCGATCTCTCGTCCTAATCCTCCCGATCGGAGTCACCTAGTGCAG,10100 fluorescence intensity (a.u.)
2,GACCCATTCGTAACCTTTTCAATCACCTCATGTACCCAGTCGGAGTCACCTAGTGCAG,8390 fluorescence intensity (a.u.)
3,AACCTTGTTACTTTCATGCACATTTGCCAGATTTTGATTTCGGAGTCACCTAGTGCAG,9730 fluorescence intensity (a.u.)
4,GTGGGTCCCACCATTTTTTAAGCTGACTGGACCGCCACGTCGGAGTCACCTAGTGCAG,8430 fluorescence intensity (a.u.)
5,TCGGATTCCAGCACTTGACGACTTAATCTCGATATCTTCTCGGAGTCACCTAGTGCAG,9350 fluorescence intensity (a.u.)
6,CATACCCTTCTTAAATGCAAGATCCATGCCGTTGCTGTAACGGAGTCACCTAGTGCAG,8460 fluorescence intensity (a.u.)
7,CCGTATTGCTGTTCTAAACGACTTCCTTTACGAGCATGGACGGAGTCACCTAGTGCAG,8270 fluorescence intensity (a.u.)
8,GAATACCTTCTGTTTTTGCCTGACTCGAAAGAGAATTGAACGGAGTCACCTAGTGCAG,8290 fluorescence intensity (a.u.)
9,AACAAAAAAATTCATGCTAAAACTTGAGCGTTGACCGCTTCGGAGTCACCTAGTGCAG,9040 fluorescence intensity (a.u.)
10,CAACCCGTCGCCGCCCTCGCAACCCGCCGCCGCCGCCGGGCGGAGTCACCTAGTGCAG,8920 fluorescence intensity (a.u.)
11,AACTATATATTTTGAGTTCCATTTTCTATCAACTCATTTTCGGAGTCACCTAGTGCAG,12500 fluorescence intensity (a.u.)
12,ATTTTTTTCTTGGTTACATGGTGGTTGGTGTTCCATTTTCCGGAGTCACCTAGTGCAG,14800 fluorescence intensity (a.u.)
13,GTACGGTTATGTGTGTCTGTTTTGAGATGTGAAACTTGGCCGGAGTCACCTAGTGCAG,8170 fluorescence intensity (a.u.)
14,CTCTCTTTCTTCCGGCTTCCTCTTCCTCTTCCCTCCTCGCCGGAGTCACCTAGTGCAG,8910 fluorescence intensity (a.u.)
15,ACTAATCCCTGACTTCGATTCGATCGTTCTGAGATACAGACGGAGTCACCTAGTGCAG,11200 fluorescence intensity (a.u.)
16,GGTGCCGGGTAATGATTGTTTTGTGGGCGTGACGGGTGATCGGAGTCACCTAGTGCAG,8710 fluorescence intensity (a.u.)
17,TACAGTTACTGATTCCATTTTTGGTGGTCAGCTGTCTTCTCGGAGTCACCTAGTGCAG,8710 fluorescence intensity (a.u.)
18,CGCCCCTTGATTCGCCTCGTTTTTTCTTTTCCCTTTTTTTCGGAGTCACCTAGTGCAG,9920 fluorescence intensity (a.u.)
19,TCCCACATAGTTTTTTTAATTCTAATGCCTCGTTGCTGCCCGGAGTCACCTAGTGCAG,9550 fluorescence intensity (a.u.)
20,GCCGTCCCTGCCATTCGCAGGCTTCTCCCCATTGCCTCACCGGAGTCACCTAGTGCAG,10200 fluorescence intensity (a.u.)
21,TCCTCTTTTTGCTGGCTTTCTGTTGACTGTTATTTTATTTCGGAGTCACCTAGTGCAG,17100 fluorescence intensity (a.u.)
